The exact form of at least one protein or probe is not confirmed. At least one verdict rests on a figure or table, not on a statement of the authors.

The chains behind the UniProt entries cited, without tags or fusion partners.
UniProt P09874, whole entry: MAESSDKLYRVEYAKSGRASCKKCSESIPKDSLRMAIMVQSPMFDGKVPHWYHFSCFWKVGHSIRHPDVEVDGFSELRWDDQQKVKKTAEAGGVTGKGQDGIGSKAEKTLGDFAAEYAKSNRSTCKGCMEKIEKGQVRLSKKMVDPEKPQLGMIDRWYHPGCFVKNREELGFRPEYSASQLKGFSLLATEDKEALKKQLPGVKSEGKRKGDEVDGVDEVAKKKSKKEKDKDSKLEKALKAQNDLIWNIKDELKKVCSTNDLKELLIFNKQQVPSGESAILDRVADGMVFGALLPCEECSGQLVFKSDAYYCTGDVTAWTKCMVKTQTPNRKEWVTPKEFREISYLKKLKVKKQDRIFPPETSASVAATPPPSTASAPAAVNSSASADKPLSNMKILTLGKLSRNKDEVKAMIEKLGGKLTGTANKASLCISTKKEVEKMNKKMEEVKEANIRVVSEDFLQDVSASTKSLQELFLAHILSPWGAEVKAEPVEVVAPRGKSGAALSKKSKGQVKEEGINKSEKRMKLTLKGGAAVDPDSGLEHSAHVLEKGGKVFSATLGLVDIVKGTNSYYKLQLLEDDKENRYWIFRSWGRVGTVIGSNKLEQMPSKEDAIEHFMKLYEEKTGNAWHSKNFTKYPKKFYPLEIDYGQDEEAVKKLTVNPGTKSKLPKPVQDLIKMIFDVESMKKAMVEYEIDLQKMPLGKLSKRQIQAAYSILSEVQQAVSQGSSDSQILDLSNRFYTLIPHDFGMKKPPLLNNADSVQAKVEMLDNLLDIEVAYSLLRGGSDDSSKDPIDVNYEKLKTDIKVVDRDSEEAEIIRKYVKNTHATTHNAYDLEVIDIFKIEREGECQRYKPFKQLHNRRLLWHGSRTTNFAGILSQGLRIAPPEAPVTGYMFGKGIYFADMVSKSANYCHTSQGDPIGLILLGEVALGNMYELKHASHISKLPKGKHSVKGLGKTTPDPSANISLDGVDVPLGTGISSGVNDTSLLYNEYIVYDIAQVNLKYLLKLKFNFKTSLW

The data set concerns the target PARP-1 WT (human) (UniProt P09874). As to the kind of experiment: NMR. As to conditions: 20 uM BAD, BAD signal lost only with PARP-1 plus DNA (indirect read-out); recombinant protein; residues 1-1014; folded or branched DNA.

As for “GCTGGCTTCGTAAGAAGCCAGCTCGCGGTCAGCTTGCTGACCGCG [dumbbell DNA with central 1-nt gap]”, the binding result is on record as “binds”.
